Experiment [1] concerns the target T1, cadherin-15 (CDH15) of endothelial cells (HUVEC, HDMEC) (human) (UniProt P55291).
T1 sequence: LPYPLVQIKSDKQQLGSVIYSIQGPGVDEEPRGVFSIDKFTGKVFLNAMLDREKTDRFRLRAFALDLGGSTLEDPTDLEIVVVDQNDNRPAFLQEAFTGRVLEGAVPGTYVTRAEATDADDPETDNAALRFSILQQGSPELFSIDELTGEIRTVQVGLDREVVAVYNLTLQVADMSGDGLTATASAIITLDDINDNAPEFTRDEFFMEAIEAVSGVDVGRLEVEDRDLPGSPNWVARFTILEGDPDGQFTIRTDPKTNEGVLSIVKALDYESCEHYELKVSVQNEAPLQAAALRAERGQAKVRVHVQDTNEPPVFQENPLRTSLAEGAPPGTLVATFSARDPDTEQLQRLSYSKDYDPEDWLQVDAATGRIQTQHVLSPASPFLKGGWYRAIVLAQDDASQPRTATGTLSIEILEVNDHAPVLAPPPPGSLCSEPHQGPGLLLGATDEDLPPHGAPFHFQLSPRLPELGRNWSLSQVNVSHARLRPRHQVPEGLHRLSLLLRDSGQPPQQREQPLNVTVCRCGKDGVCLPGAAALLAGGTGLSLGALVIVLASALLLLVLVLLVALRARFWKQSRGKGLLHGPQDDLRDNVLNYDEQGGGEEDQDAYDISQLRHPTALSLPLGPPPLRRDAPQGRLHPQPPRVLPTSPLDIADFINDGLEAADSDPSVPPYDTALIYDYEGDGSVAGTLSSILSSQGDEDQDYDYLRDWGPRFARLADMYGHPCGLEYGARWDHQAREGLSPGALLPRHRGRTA
Nature of the experiment: pull-down of biotinylated PEPITEM from endothelial cells (HDMEC, HUVEC) on neutravidin columns, LC-MS/MS.

For experiment [2], the target named is T2, CDH15-FC protein (human) (UniProt P55291).
T2 sequence: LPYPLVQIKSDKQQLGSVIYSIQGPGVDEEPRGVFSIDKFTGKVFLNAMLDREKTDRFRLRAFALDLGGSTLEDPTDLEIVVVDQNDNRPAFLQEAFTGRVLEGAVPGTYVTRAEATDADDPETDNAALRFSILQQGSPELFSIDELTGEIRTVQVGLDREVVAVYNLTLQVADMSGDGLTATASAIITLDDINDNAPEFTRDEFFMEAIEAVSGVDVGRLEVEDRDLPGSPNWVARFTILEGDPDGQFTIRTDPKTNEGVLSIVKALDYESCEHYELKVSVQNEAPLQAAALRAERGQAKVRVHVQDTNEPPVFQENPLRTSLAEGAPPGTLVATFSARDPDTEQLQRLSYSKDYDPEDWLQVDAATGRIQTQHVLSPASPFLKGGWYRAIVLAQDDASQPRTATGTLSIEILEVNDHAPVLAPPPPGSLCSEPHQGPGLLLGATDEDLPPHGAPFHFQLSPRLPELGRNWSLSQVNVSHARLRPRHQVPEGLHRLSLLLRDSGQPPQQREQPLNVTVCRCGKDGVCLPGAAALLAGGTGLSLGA
Nature of the experiment: SPR, CDH15-FC immobilised on the chip. Background: In SPR one partner is held on a chip, and binding of the other changes the refractive index at the surface.

Experiment [3] has as its target T2, CDH15-FC protein (human). Briefly: SPR (Biocore 3000), CDH15-FC immobilised, PEPITEM perfused at increasing concentration.

Results are given in words; binding and its absence hold for the method and conditions named. For part of these data: In cells and extracts the contact can be indirect. Some results given as binding are weak or reduced against the parent protein; the word gives no strength. For part of these data: Tags and fused reporters may be left off the sequences shown.

Take SVTEQGAELSNEER (biotin conjugate on the N-terminus) [PEPITEM with a biotin conjugate on the N-terminus]: the binding result in experiment [1] is recorded as “binds”.

For SVTEQGAELSNEER [PEPITEM], the binding entry in experiment [2] and in experiment [3] was “binds” in each case.
